# Source: the supplement of paper PMC8728848
# This is one part of the list.
# B1: PX9961M-bvu-482-23-482 (Bacteroides vulgatus) (protein)
# chain: WLDLAPSTQVDTETSINVLSDIEFTLNGIYSTMQSSDAYSGRLVYYGDVTGDDMQAVSSTKRTGNYYRFNFTKDNGPSSHWSYLYSIIQNCNLILMNVDKLSIDEDETEYKNDLKGQALAIRGMALFDLTRIFGYPYLKDNGASLGVPIVKELSTIDSKPARNTVAECYTEIISDLKNSTELLSGDFNKGKVNRWAAMTLLSRVYLYKGEYNEALTMAENAIKGAEKEGYALWTNEEYPTAWGNDASASNPGEILFEIVNLTTDSPGKESMGYLNSYNGYDDMCITCSFYQLLKKDPKDVRLKILSFDKKYYAYVNKYQPQQGENITDANIPLIRLSEAYLNAAEAAVQTGDNAKAVKYLNSIVQRANPENSVEGKTLTLENVLDERRKELVAEGHRMYDVIRNGMTVKRIDVKDSDINKTKHNTAYMEYDWNFHKILLPIPKKEMDANPNMKQNPGYVD
# Legend:
# Test in all cases: glycan array binding signal (z-score within array); higher = stronger binding
# Settings in all cases: glycan notation: IUPAC condensed, linker removed
# [1] = molecular target: GlcNAc(b1-3)Gal(b1-4)GlcNAc(b1-6)[Gal(b1-3)]GalNAc
# Summary of the method: (§1)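 Glycan array data came from 3228 arrays in the Consortium for Functional Glycomics database, and only arrays with an available protein sequence were kept. Glycan names were put into IUPAC-condensed notation, and columns mapping to the same glycan were averaged. The binding signal is a within-array Z-score, averaged across arrays of one protein sequence run at different concentrations or buffers and across linkers. A negative Z-score can be read as non-binding.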
# [2] = molecular target: GlcNAc(b1-3)Gal(b1-4)GlcNAc(b1-6)[GlcNAc(b1-3)Gal(b1-3)]GalNAc
# Summary of the method: as §1
# [3] = molecular target: GlcNAc(b1-3)Gal(b1-4)GlcNAc(b1-6)[GlcNAc(b1-3)]Gal(b1-4)GlcNAc
# Summary of the method: as §1
# [4] = molecular target: GlcNAc(b1-3)GalNAc
# Summary of the method: as §1
# [5] = molecular target: GlcNAc(b1-3)Man
# Summary of the method: as §1
# [6] = molecular target: GlcNAc(b1-3)[GlcNAc(b1-4)][GlcNAc(b1-6)]GlcNAc
# Summary of the method: as §1
# [7] = molecular target: GlcNAc(b1-3)[GlcNAc(b1-6)]Gal(b1-4)GlcNAc
# Summary of the method: as §1
# [8] = molecular target: GlcNAc(b1-3)[GlcNAc(b1-6)]GalNAc
# Summary of the method: as §1
# [9] = molecular target: GlcNAc(b1-4)Gal(b1-4)GlcNAc
# Summary of the method: as §1
# [10] = molecular target: GlcNAc(b1-4)GlcNAc
# Summary of the method: as §1
# [11] = molecular target: GlcNAc(b1-4)GlcNAc(b1-4)GlcNAc
# Summary of the method: as §1
# [12] = molecular target: GlcNAc(b1-4)GlcNAc(b1-4)GlcNAc(b1-4)GlcNAc(b1-4)GlcNAc
# Summary of the method: as §1
# [13] = molecular target: GlcNAc(b1-4)GlcNAc(b1-4)GlcNAc(b1-4)GlcNAc(b1-4)GlcNAc(b1-4)GlcNAc
# Summary of the method: as §1
# [14] = molecular target: GlcNAc(b1-4)[GlcNAc(b1-6)]GalNAc
# Summary of the method: as §1
# [15] = molecular target: GlcNAc(b1-6)Gal(b1-4)GlcNAc
# Summary of the method: as §1
# [16] = molecular target: GlcNAc(b1-6)GalNAc
# Summary of the method: as §1
# [17] = molecular target: GlcNAc6S(b1-3)Gal(b1-4)GlcNAc
# Summary of the method: as §1
# [18] = molecular target: Kdn(a2-3)Gal(b1-3)GalNAc
# Summary of the method: as §1
# [19] = molecular target: Kdn(a2-3)Gal(b1-3)GlcNAc
# Summary of the method: as §1
binder,measurement,setting,value
B1,glycan array binding signal (z-score),[1],-0.394
same,glycan array binding signal (z-score),[2],0.464
same,glycan array binding signal (z-score),[3],1.12
same,glycan array binding signal (z-score),[4],-0.057
same,glycan array binding signal (z-score),[5],0.099
same,glycan array binding signal (z-score),[6],-0.093
same,glycan array binding signal (z-score),[7],-0.467
same,glycan array binding signal (z-score),[8],-0.325
same,glycan array binding signal (z-score),[9],0.345
same,glycan array binding signal (z-score),[10],-0.061
same,glycan array binding signal (z-score),[11],-0.183
same,glycan array binding signal (z-score),[12],-0.548
same,glycan array binding signal (z-score),[13],-0.862
same,glycan array binding signal (z-score),[14],0.697
same,glycan array binding signal (z-score),[15],-1.11
same,glycan array binding signal (z-score),[16],-0.68
same,glycan array binding signal (z-score),[17],-0.239
same,glycan array binding signal (z-score),[18],-0.994
same,glycan array binding signal (z-score),[19],-0.092

# A second format for part of the listing above:
binder | measurement | setting | value
B1 | glycan array binding signal (z-score) | [14] | 0.697
same | glycan array binding signal (z-score) | [15] | -1.11
